Results are given in words; binding and its absence hold for the method and conditions named.
Target: recombinant human galactokinase (human) (UniProt P51570)
Test: cross-linking; BS3 (50, 150, 500 μM) with 10-15 μM protein in buffer R (50 mM Hepes-OH pH 7.5, 150 mM NaCl, 10% v/v glycerol), 37 °C, 35 min; with 0.8 mM EGTA or 0.8 mM EGTA/1.6 mM calcium chloride; analysed by 15% SDS-PAGE; both purified

The chains behind the UniProt entries cited, without tags or fusion partners.
UniProt P51570: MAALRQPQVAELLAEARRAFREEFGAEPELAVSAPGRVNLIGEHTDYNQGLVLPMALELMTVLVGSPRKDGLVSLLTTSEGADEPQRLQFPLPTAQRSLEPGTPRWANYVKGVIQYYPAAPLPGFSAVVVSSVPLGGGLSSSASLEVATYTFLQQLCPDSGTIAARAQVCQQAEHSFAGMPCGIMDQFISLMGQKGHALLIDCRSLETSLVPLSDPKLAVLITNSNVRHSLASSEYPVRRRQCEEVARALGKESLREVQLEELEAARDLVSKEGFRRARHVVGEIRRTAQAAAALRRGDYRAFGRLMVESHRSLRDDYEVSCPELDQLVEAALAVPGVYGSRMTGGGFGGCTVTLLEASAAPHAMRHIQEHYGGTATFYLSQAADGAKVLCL

## recombinant human galactokinase (from UniProt P51570 1-392) (enzyme)
  binding: no binding (tested: 15 μM)

— PMC4300400, “Comparative biochemical analysis of three members of the Schistosoma mansoni TAL family: Differences in ion and drug binding properties” (Biochimie, 2015)
